{"source": "PubChem BioAssay AID493246 (Drosophila RNAi Screening Center, 2011)", "aim": "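Identify essential fly genes by loss of cell viability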 (primary screen)", "system": "Drosophila Kc and S2R+ cells", "reagents": "long dsRNA against Drosophila genes", "detection": "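Cell number per well after knock-down, printed as raw plate values; calls were based on per-plate z-scores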", "scale": "Kc cell number and S2R+ cell number: higher = more cells remaining", "hit rule": "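Active when the per-plate z-score of cell number is 3 or more in the direction of fewer cells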", "note": "The deposit covers about 21,000 reagents; this is an unselected part of those that have a named target and a result. In the full data, 429 (2%) got an active call. 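Values are raw and not normalised between plates; calls rest on per-plate z-scores that were not deposited.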 A plus sign joins genes that one reagent is predicted to hit. Not given: the amount of reagent, the time to read-out."}
{"gene": "CG34276", "DRSC id": "DRSC15811", "Kc cell number, rep 1": 1.25e6, "Kc cell number, rep 2": 1.30e6, "S2R+ cell number, rep 1": 1.13e6, "S2R+ cell number, rep 2": 1.30e6, "Outcome": "inactive"}
{"gene": "MFS18 (Major Facilitator Superfamily Transporter 18)", "DRSC id": "DRSC00452", "Kc cell number, rep 1": 1.52e6, "Kc cell number, rep 2": 1.50e6, "S2R+ cell number, rep 1": 8.69e5, "S2R+ cell number, rep 2": 1.02e6, "Outcome": "inactive"}
{"gene": "CG17784", "DRSC id": "DRSC15268", "Kc cell number, rep 1": 1.78e6, "Kc cell number, rep 2": 1.67e6, "S2R+ cell number, rep 1": 1.04e6, "S2R+ cell number, rep 2": 1.12e6, "Outcome": "inactive"}
{"gene": "sotv + CG10731", "DRSC id": "DRSC05930", "Kc cell number, rep 1": 1.53e6, "Kc cell number, rep 2": 1.58e6, "S2R+ cell number, rep 1": 1.16e6, "S2R+ cell number, rep 2": 1.17e6, "Outcome": "inactive"}
{"gene": "sotv + CG10731", "DRSC id": "DRSC05997", "Kc cell number, rep 1": 1.49e6, "Kc cell number, rep 2": 1.53e6, "S2R+ cell number, rep 1": 1.16e6, "S2R+ cell number, rep 2": 1.20e6, "Outcome": "inactive"}
{"gene": "Liprin-beta", "DRSC id": "DRSC09795", "Kc cell number, rep 1": 1.33e6, "Kc cell number, rep 2": 1.40e6, "S2R+ cell number, rep 1": 1.26e6, "S2R+ cell number, rep 2": 1.34e6, "Outcome": "inactive"}
{"gene": "CG11951", "DRSC id": "DRSC14442", "Kc cell number, rep 1": 1.49e6, "Kc cell number, rep 2": 1.49e6, "S2R+ cell number, rep 1": 9.82e5, "S2R+ cell number, rep 2": 1.11e6, "Outcome": "inactive"}
{"gene": "pon (partner of numb)", "DRSC id": "DRSC18823", "Kc cell number, rep 1": 1.47e6, "Kc cell number, rep 2": 1.48e6, "S2R+ cell number, rep 1": 1.05e6, "S2R+ cell number, rep 2": 1.14e6, "Outcome": "inactive"}
{"gene": "CG42613", "DRSC id": "DRSC13332", "Kc cell number, rep 1": 1.51e6, "Kc cell number, rep 2": 1.46e6, "S2R+ cell number, rep 1": 1.01e6, "S2R+ cell number, rep 2": 1.12e6, "Outcome": "inactive"}
{"gene": "CG42613", "DRSC id": "DRSC14769", "Kc cell number, rep 1": 1.50e6, "Kc cell number, rep 2": 1.27e6, "S2R+ cell number, rep 1": 1.22e6, "S2R+ cell number, rep 2": 1.34e6, "Outcome": "inactive"}
{"gene": "CG42613", "DRSC id": "DRSC15802", "Kc cell number, rep 1": 1.67e6, "Kc cell number, rep 2": 1.77e6, "S2R+ cell number, rep 1": 1.36e6, "S2R+ cell number, rep 2": 1.44e6, "Outcome": "inactive"}
{"gene": "CG31199", "DRSC id": "DRSC15284", "Kc cell number, rep 1": 1.49e6, "Kc cell number, rep 2": 1.58e6, "S2R+ cell number, rep 1": 1.15e6, "S2R+ cell number, rep 2": 1.26e6, "Outcome": "inactive"}

As entered above:
CG42613 [DRSC15802], S2R+ cell number, rep 1: 1.36e6
Entry of CG31199 [DRSC15284] under “S2R+ cell number, rep 1”: 1.15e6
